Data set [1] relates to complement C5 in cynomolgus serum (Macaca fascicularis). Nature of the data set: inhibition of the protein. The conditions noted are these: protein in an extract, variant of ARC186.
The target in data set [2] is complement C5 (full length) (Homo sapiens) (UniProt P01031). Nature of the data set: competition with a labelled probe. The conditions noted are these: 37 C, purified native protein, variant of ARC186; for binding result: 2 nM C5, curve overlaps ARC186.
Data set [3] has as its target complement C5 in human serum/blood (Homo sapiens) (UniProt P01031). Nature of the data set: inhibition of the protein. The conditions noted are these: as ARC186 plus 5' 30 kDa PEG; hemolysis, human serum; protein in an extract; variant of ARC186.
The test system of data set [4] is complement C5 in rat serum (Rattus norvegicus). Nature of the data set: inhibition of the protein. Conditions: as ARC186 plus 5' branched 40 kDa PEG (2,3-bis(mPEG-20kDa)-propyl-1-carbamoyl); hemolysis, 0.3% rat serum; little to no specific inhibition; protein in an extract; variant of ARC186; dose not given here.

Chains of the proteins cited; added tags and fusions are not shown. Chains listed by the source or under a name are the forms on record and can include a tag or linker.
UniProt P01031, whole entry: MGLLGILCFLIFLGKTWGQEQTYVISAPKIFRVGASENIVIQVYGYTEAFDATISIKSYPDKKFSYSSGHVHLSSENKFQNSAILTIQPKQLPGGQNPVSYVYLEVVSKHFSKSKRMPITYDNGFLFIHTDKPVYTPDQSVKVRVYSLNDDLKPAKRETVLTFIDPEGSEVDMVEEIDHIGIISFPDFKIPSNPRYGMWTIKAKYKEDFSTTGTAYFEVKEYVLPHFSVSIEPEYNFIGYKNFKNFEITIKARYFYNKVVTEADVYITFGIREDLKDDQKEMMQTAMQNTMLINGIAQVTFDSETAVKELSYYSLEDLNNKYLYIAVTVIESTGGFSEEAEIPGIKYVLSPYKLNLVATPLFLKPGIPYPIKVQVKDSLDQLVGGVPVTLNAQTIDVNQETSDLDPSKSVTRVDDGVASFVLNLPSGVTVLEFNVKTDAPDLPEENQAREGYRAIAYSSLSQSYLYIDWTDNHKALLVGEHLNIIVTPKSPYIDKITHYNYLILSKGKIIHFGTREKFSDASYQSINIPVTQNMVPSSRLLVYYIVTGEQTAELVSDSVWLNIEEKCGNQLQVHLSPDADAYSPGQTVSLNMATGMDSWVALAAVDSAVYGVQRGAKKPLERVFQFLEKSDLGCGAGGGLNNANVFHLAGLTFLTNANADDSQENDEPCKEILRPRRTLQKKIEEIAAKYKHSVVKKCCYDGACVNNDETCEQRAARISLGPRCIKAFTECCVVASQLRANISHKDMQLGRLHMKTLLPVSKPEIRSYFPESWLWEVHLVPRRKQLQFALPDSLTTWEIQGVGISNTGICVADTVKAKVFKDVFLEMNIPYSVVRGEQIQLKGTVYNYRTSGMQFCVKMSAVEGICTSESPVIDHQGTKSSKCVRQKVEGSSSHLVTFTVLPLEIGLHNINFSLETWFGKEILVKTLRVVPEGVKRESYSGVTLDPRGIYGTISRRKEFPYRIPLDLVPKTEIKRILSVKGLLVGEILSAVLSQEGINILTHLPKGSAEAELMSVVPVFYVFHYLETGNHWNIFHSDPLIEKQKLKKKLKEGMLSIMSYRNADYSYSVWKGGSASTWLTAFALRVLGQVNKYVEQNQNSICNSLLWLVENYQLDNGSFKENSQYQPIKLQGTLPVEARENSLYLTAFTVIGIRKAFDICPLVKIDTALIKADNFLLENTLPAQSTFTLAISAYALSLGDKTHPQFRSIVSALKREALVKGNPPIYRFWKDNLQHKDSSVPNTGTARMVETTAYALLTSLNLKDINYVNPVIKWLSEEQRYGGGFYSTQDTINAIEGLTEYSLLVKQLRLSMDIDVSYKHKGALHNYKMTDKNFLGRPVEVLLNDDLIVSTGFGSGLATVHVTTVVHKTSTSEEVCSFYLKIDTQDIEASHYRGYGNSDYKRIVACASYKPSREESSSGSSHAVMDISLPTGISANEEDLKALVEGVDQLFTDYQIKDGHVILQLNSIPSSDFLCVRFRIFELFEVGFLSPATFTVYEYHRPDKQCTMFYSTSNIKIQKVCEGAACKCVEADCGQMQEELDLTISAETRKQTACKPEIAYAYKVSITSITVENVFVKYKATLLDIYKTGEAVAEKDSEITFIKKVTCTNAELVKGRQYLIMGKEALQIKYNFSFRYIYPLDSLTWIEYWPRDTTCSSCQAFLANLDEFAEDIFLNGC
complement C5 in cynomolgus serum (Macaca fascicularis), one chain, as listed by the source, chain 1 of 2: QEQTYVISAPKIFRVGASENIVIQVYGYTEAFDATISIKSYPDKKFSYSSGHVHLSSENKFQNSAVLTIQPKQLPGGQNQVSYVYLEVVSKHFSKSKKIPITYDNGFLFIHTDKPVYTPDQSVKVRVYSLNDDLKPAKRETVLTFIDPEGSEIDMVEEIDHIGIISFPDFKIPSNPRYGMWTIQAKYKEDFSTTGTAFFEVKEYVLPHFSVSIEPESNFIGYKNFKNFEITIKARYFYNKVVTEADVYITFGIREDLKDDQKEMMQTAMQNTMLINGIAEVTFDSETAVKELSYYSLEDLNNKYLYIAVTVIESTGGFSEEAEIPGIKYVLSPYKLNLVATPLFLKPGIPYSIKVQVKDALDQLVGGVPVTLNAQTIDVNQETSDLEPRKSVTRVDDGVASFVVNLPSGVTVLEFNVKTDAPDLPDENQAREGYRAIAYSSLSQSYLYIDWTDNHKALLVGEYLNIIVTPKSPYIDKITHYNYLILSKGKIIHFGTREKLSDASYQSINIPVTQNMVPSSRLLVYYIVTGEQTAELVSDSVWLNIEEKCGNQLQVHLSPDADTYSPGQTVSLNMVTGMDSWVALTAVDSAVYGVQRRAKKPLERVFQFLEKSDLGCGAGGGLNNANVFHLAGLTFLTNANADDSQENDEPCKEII
complement C5 in rat serum (Rattus norvegicus), one chain, as listed by the source, chain 1 of 2: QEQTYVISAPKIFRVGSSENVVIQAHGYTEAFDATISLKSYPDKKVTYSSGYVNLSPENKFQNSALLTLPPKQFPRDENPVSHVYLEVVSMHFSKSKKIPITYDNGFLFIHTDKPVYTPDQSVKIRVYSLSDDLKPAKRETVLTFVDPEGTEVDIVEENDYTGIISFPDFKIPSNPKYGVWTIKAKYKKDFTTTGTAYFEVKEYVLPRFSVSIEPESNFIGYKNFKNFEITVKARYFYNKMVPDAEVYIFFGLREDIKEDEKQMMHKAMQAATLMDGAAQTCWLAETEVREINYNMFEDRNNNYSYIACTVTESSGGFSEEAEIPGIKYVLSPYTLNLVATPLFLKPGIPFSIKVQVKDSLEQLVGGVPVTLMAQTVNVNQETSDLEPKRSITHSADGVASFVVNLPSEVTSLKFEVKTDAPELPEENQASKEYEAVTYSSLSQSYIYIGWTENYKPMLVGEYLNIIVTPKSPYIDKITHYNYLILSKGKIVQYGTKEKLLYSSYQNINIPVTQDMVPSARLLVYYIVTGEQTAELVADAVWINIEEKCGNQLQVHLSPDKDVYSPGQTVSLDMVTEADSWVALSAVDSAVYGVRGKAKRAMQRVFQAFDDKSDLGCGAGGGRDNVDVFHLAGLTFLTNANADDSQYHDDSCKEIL
complement C5 in cynomolgus serum (Macaca fascicularis), one chain, as listed by the source, chain 2 of 2: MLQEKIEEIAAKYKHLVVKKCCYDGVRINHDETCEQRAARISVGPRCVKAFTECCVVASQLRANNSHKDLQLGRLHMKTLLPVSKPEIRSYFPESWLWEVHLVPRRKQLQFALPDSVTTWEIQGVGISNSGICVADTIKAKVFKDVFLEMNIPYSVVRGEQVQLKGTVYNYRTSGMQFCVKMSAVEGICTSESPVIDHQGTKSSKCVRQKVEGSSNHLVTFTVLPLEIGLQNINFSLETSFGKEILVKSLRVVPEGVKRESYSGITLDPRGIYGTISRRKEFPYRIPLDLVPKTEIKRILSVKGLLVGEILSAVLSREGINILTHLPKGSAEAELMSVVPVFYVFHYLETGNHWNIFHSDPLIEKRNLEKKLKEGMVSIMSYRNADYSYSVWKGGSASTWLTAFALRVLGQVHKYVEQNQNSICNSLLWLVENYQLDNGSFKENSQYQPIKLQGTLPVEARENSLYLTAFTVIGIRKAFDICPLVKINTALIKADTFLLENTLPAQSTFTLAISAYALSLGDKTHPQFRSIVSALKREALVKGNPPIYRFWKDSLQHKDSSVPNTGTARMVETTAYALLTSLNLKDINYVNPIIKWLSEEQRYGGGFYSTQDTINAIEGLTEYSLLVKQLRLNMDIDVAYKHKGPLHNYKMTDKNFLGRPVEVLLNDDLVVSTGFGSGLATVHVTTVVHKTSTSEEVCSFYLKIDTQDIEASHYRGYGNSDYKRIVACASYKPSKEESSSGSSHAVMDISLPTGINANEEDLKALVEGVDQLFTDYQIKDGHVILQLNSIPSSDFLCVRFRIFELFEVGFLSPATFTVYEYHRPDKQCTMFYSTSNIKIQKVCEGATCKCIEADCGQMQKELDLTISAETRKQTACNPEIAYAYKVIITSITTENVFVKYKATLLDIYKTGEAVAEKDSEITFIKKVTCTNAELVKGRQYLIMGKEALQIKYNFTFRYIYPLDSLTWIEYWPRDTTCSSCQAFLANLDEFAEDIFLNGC
complement C5 in rat serum (Rattus norvegicus), one chain, as listed by the source, chain 2 of 2: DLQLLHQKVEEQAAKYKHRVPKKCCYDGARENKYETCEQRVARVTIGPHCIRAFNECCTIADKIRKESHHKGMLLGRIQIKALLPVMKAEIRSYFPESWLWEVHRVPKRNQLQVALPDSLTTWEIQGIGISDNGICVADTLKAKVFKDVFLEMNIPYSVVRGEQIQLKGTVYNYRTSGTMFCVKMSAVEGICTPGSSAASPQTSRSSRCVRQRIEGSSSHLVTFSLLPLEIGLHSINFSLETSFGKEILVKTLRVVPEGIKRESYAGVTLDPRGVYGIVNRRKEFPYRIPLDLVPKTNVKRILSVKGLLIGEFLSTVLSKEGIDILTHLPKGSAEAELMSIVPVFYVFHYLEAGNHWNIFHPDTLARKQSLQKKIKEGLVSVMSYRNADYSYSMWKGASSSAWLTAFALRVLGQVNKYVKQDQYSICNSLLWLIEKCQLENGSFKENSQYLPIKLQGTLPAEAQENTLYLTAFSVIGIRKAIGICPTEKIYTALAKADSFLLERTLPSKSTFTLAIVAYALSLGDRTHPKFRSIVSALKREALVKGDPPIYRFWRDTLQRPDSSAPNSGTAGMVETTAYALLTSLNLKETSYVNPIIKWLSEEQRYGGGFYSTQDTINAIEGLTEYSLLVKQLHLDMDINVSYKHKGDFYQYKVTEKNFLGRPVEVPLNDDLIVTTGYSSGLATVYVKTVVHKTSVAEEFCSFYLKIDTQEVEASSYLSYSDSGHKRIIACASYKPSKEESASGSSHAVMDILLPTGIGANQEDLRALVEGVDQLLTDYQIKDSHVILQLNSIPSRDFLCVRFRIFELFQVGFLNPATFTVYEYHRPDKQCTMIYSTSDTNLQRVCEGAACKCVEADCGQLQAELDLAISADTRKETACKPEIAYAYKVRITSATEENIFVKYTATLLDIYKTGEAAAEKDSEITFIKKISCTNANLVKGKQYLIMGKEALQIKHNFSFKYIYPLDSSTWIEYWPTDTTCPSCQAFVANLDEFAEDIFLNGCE

This note sets out measurements from patent publication US20090269356.

Construct, isoform or probe ends are uncertain for at least one entry. For part of these data: A negative result means that nothing was seen under these conditions. For part of these data: Weaker means in comparison with the reference protein, sequence or condition of that experiment. For part of these data: Results from cells or extracts need not show a direct contact.

“CGCCGCGGUCUCAGGCGCUGAGUCUGAGUUUACCUGCG [ARC187]”: the “functional effect of the aptamer” value in data set [1] (2'-F C and U, 2'-OMe purines except three 2'-OH, 3' inverted dT, 5' branched 40 kDa PEG (1,3-bis(mPEG-20kDa)-propyl-2-(4'-butamide)), zymosan activation of dosed cynomolgus plasma, about 15 uM (30-fold excess) needed) is given as “active”. For the sequence “CGCCGCGGUCUCAGGCGCUGAGUCUGAGUUUACCUGCG [ARC657]”, the binding result in data set [2] (as ARC186 plus 5' 20 kDa PEG) is “binds”. In data set [1] (as ARC186 plus 5' 20 kDa PEG, zymosan activation of dosed cynomolgus plasma, about 15 uM needed), the “functional effect of the aptamer” value is “active”. Take “CGCCGCGGUCUCAGGCGCUGAGUCUGAGUUUACCUGCG [ARC658]”: the binding result in data set [2] (as ARC186 plus 5' 30 kDa PEG) is “binds”. Moreover, the IC50 in data set [1] (as ARC186 plus 5' 30 kDa PEG, hemolysis, cynomolgus serum) is 1.7 nM; in data set [3], 0.21 nM. Turning to “CGCCGCGGUCUCAGGCGCUGAGUCUGAGUUUACCUGCG [ARC672]”, the Kd in data set [2] (as ARC186 plus 5' amine (C6), PBS, 1 mM MgCl2, BSA, tRNA, competition with 32P-ARC186) is 0.46 nM. As to “CGCCGCGGUCUCAGGCGCUGAGUCUGAGUUUACCUGCG [ARC1905]”, the “functional effect of the aptamer” value in data set [1] (as ARC186 plus 5' branched 40 kDa PEG (2,3-bis(mPEG-20kDa)-propyl-1-carbamoyl), hemolysis, 0.1% serum, about 10-fold less potent than human, dose not given here) is on record as “less active”; in data set [4], “not active”.

The IC50 is the point on the concentration scale where inhibition reaches its midpoint. A word on the Kd: it is the free concentration of one partner at which half of the binding sites on the other are occupied at equilibrium, for simple one-to-one binding.
